These are yes or no findings as the source states them, for the method shown. Some binding calls cover weakened binding; strength is not graded here.

B1: anti-BCAM human IgG4 antibody 111a (antibody, V domains shown)
VH: QVTLKESGPGLVKPSGTLSLTCAVSGGSISSSNWWSWVRQPPGKGLEWIGEIYHSGSTNYNPSLKSRVTISVDKSKNQFSLKLSSVTAADTAVYYCARAYTVTTTYFDYWGQGTLVTVSS
VL: NIQMTQSPSTLSASVGDRVTITCRASQSMSTWLAWYQQKPGRAPKLLIYKASALETGVPSRFSGSGSGTQFTLTISSLQPDDFATYYCQQYDEFASFGQGTKVEIK
notes: Derived from a human scFv phage library; also called 11la
B2: anti-BCAM human IgG4 antibody 111b (antibody, V domains shown)
VH: EVQLVQSGAEVKKPGASVKVSCKASGYTFTSYYMHWVRQAPGQGLEWMGIINPSGGSTSYAQKFQGRVTMTRDTSTSTVYMELSSLRSEDTAVYYCARDGKGWDYYGSGSPLQYWGQGTLVTVSS
VL: LPVLTQPPSVSKGLRQTATLTCTGNSNNVGNQGAAWLQQHQGHPPKLLSYRNNDRPSGISERLSASRSGNTASLTITGLQPEDEADYYCSAWDSSLSAWVFGGGTKLTVL
B3: anti-BCAM human IgG4 antibody 111c (antibody, V domains shown)
VH: EVQLVQSGGGLVKPGGSLRLSCAASGFTFSDYYMSWIRQAPGKGLEWVSYTSSSGSTIYYADSVKGRFTISRDNAKNSLYLQMNSLRAEDTAVYYCARDITAFDIWGQGTMVTVSS
VL: LPVLTQPPSASGSPGQSVTISCTGTSSDVGGYNYVSWYQQHPGKAPKLMIYEVNKRPSGVPDRFSGSKSGNTASLTVSGLQAEDEADYYCCSYAGSNNYVFGTGTKVTVL

One test deals with T1, Human BCAM (amine-coupled to AR2G biosensors) (human) (UniProt P50895).
T1 sequence (looked up): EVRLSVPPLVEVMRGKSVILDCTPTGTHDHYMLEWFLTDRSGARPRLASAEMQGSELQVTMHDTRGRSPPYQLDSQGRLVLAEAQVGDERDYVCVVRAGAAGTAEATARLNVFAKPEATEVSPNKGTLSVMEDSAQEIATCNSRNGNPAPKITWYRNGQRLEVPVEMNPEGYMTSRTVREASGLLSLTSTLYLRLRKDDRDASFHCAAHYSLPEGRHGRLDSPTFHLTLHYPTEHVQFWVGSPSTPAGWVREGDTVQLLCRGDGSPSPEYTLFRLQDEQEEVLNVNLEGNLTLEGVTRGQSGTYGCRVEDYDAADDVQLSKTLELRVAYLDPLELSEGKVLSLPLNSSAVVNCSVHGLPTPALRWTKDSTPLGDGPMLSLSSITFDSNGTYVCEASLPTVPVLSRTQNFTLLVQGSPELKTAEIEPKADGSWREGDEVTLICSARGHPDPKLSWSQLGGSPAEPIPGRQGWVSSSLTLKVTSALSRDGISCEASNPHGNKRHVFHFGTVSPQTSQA
As to the kind of experiment: BLI (Octet QK). A general note: BLI is a label-free optical method that tracks binding on a fibre tip over time.
Consider B1, for which the binding entry is “binds”.

As to B2, the binding entry is given as “binds”.

B3: the binding entry was “binds”.

In another test the target is T2, BCAM protein (antigenic protein coated in the ELISA) (UniProt P50895).
T2 sequence (looked up): T1 sequence (looked up)
As to the kind of experiment: ELISA on coated BCAM protein. For orientation: In an ELISA, binding on a coated surface is turned into a signal by an enzyme label.
Turning to B1, the binding entry was “binds”.

Take B2: the binding entry is reported as “binds”.

As to B3, the binding entry was “binds”.

The next test addresses T1, Human BCAM (amine-coupled to AR2G biosensors) (human). As to the kind of experiment: BLI (Octet), human BCAM amine-coupled to AR2G biosensors, antibody in solution at serial dilutions.
Consider B1, for which the binding entry was “binds”.

In the case of B2, the binding entry is on record as “binds”.

In the case of B3, the binding result is reported as “binds”.

A further test addresses T3, Human BCAM expressed on transfected HEK293FT cells (human) (UniProt P50895).
T3 sequence (looked up): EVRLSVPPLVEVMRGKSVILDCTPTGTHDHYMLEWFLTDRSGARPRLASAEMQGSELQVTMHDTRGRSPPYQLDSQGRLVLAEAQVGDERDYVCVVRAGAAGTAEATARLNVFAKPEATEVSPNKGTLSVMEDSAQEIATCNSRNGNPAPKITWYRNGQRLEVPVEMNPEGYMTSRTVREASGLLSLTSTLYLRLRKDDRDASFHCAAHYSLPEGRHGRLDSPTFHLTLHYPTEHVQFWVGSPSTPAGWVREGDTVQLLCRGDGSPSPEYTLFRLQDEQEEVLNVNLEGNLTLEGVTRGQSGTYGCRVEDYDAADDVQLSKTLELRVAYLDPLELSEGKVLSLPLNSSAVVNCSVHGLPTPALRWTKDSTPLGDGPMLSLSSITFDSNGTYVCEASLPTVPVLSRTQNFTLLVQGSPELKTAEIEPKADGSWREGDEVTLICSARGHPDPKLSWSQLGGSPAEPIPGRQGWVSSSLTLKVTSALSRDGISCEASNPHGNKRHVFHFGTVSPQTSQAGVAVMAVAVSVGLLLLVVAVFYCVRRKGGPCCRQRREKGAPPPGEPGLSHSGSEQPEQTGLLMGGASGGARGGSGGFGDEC
As to the kind of experiment: flow cytometry on HEK293FT cells transfected with human BCAM, detected with AlexaFluor 647 goat anti-human IgG.
For the molecule B1, the binding result is “binds”.

For the molecule B2, the binding entry is recorded as “binds”.

For B3, the binding entry is “binds”.

These data come from US20240209112A1 (GENOME, published 2024).
